Reference: PMC4222456
These are yes or no findings as the source states them, for the method shown. In cells and extracts the contact can be indirect. Some entries that bind do so weakly or less than the wild type.

Biological target: T1, CARMA1 (endogenous, primary mouse CD4 T cells) (mouse (endogenous in primary CD4 T cells)) (UniProt Q8CIS0)
T1 sequence: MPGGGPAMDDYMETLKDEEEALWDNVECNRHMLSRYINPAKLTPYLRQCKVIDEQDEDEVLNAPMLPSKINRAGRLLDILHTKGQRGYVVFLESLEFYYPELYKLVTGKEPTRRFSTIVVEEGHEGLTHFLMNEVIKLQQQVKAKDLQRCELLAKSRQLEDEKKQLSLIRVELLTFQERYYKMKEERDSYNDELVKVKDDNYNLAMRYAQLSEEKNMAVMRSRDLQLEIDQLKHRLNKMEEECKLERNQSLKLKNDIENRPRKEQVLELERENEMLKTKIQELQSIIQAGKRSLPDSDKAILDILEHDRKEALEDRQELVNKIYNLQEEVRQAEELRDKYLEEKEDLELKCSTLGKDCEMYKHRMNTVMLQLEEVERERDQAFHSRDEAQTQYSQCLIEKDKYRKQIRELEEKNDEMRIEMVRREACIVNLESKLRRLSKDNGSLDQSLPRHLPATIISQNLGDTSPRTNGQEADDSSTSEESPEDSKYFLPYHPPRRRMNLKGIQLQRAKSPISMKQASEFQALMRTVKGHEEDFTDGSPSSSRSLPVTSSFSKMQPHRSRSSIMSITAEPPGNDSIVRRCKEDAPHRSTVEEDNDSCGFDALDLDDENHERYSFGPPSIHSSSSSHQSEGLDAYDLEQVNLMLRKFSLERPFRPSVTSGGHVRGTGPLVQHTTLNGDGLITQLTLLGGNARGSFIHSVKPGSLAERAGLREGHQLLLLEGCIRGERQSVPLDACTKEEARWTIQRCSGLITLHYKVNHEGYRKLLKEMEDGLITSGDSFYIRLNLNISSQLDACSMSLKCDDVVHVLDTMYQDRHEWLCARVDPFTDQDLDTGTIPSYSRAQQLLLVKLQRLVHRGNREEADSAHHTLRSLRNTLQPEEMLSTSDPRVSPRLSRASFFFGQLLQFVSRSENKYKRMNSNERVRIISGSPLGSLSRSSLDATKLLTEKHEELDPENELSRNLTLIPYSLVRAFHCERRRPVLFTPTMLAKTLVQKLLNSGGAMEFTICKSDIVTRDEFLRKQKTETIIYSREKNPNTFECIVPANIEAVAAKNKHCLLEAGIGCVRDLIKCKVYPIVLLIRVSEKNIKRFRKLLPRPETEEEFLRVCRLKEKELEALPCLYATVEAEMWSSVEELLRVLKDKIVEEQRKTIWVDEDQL
Test: co-IP; endogenous proteins; primary mouse CD4 T cells untreated or stimulated with P/I; anti-CARMA1 IP, Western Blotting

binding: binds
B1: AIP (endogenous, primary mouse CD4 T cells) (protein, UniProt O08915 1-330)
chain: MADLIARLREDGIQKRVIQEGRGELPDFQDGTKATFHFRTLHSDNEGSVIDDSRTRGKPMELIVGKKFKLPVWETIVCTMREGEIAQFLCDIKHVVLYPLVAKSLRNIAEGKDPLEGQRHCCGIAQMHEHSSLGHADLDALQQNPQPLIFHIEMLKVESPGTYQQDPWAMTDEEKAKAVPVIHQEGNRLYREGQVKEAAAKYYDAIACLKNLQMKEQPGSPDWIQLDLQITPLLLNYCQCKLVAQEYYEVLDHCSSILNKYDDNVKAYFKRGKAHAAVWNAQEAQADFAKVLELDPALAPVVSRELRALETRIRQKDEEDKARFRGIFSH
